In article PMC7819943, “Rice protein-binding microarrays: a tool to detect cis-acting elements near promoter regions in rice”:
Some of the results follow.

The chains behind the UniProt entries cited, without tags or fusion partners.
UniProt Q0JBA9, entry or part of it: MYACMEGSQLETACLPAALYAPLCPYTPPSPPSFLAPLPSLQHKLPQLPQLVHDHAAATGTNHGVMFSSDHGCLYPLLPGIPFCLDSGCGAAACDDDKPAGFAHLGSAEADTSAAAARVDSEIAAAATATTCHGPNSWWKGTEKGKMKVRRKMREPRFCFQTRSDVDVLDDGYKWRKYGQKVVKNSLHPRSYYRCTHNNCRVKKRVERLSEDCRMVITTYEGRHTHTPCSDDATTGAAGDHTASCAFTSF

target: OsWRKY34 (Oryza sativa, UniProt Q0JBA9 1-250); experiment: protein-binding microarray (RPBM); PBS, 2% BSA, 51.3 ng/ul salmon testes DNA, 50 uM zinc acetate, 200 nM TF, 25 C, 1 h; high values mean tight binding; conditions: protein: recombinant; tags: N-terminal polyhistidine and DsRed monomer fusion (pET32a); label: CyDye5-dUTP incorporated in the synthesized complementary strand; 3' TTTTT single-stranded linker to array surface; dsDNA, one strand shown
How it was run: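 The binding signal is fluorescence intensity per array feature (arbitrary units). Readings came from an Axon 4000B scanner after a washed, 2% BSA-blocked, double-stranded custom Agilent array had been incubated for 1 h at 25 °C with 200 nM protein and 50 µM zinc acetate. The protein was a Ni–NTA-purified transcription factor fused N-terminally to polyhistidine and DsRed, expressed in E. coli BL21-CodonPlus.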

Sequence | binding signal
TCCACCTTCCCTTTTATTTTGGAGAACTTTACAGCCAAAACGGAGTCACCTAGTGCAG | 11800 fluorescence intensity (a.u.)
TGCATTCTTACTCTCTCTATCTTTAAAAAATCAATATTATCGGAGTCACCTAGTGCAG | 8040 fluorescence intensity (a.u.)
ATCTATCTCTGACCTCTCCTCTCCACATGCTCATCGATCACGGAGTCACCTAGTGCAG | 8610 fluorescence intensity (a.u.)
GCTCCGTGGCACTATTTTTTTTTTACCGCGAATCCTCCAACGGAGTCACCTAGTGCAG | 9550 fluorescence intensity (a.u.)
GCACCACATCCCCACTCACCCCTGCGCCTCTCCCCAATTCCGGAGTCACCTAGTGCAG | 8490 fluorescence intensity (a.u.)
CAGTTTCGTCTCGCCGGCGTTGTATTTCCACATCAACGTGCGGAGTCACCTAGTGCAG | 10800 fluorescence intensity (a.u.)
CTGGTAGTTGCCTTGCGCGTTCTTTGTCTCTGTCTCTCTCCGGAGTCACCTAGTGCAG | 10300 fluorescence intensity (a.u.)
CTTCGCATCCCTGCCCGACTCGGCCTCTCTGTCGCCGTCCCGGAGTCACCTAGTGCAG | 10300 fluorescence intensity (a.u.)
CTCGTCGATGTAGCGCTCCTCCCGTTCCTGGTCTCCAACGCGGAGTCACCTAGTGCAG | 8230 fluorescence intensity (a.u.)
CTTCCCAAGCGTGTCGCCCTTATCCGGCTGCCTCGTGTCCCGGAGTCACCTAGTGCAG | 8080 fluorescence intensity (a.u.)
ATCCTGTTTTTTTTTGTTCCTTTTTTCTTTACTTTGCGCCCGGAGTCACCTAGTGCAG | 13200 fluorescence intensity (a.u.)
GGTGGAGAAGTGCGAGTGATGGCGCGGGGTAGTGGTGGGGCGGAGTCACCTAGTGCAG | 11400 fluorescence intensity (a.u.)
TGTCATTTATCGTAGTACAATTCTATCTCCACACCTTTCACGGAGTCACCTAGTGCAG | 9090 fluorescence intensity (a.u.)
ACATTTATTCCAATTCATTCATCAATCTTCTCAAATTTAGCGGAGTCACCTAGTGCAG | 8340 fluorescence intensity (a.u.)
CCATTCTTCCTTTCTCTTTATTTTTTTCTCCCATTCTTTACGGAGTCACCTAGTGCAG | 11900 fluorescence intensity (a.u.)
TAAACGTTCGATATGACATGGTGAAAAATTTTTGGGTGGGCGGAGTCACCTAGTGCAG | 9920 fluorescence intensity (a.u.)
TCGTCCACCTCGGCTCCGTCCCCACCCTCGTCGTCTCCTCCGGAGTCACCTAGTGCAG | 11200 fluorescence intensity (a.u.)
CTTAGTTGTTATGGGCGGGTTAGAGTAATCTATTGTAACACGGAGTCACCTAGTGCAG | 13500 fluorescence intensity (a.u.)
CCCATCCACGTCGCCGCTATTTTCGCGGCGCGCGCGCCGCCGGAGTCACCTAGTGCAG | 10000 fluorescence intensity (a.u.)
TACCATTTTTGTAGAAGCTCATATAGTACTATACTACAAACGGAGTCACCTAGTGCAG | 8820 fluorescence intensity (a.u.)
TCGATCCGCGCTTTTGTCCACGTCACCAATCCGTGGCAACCGGAGTCACCTAGTGCAG | 10700 fluorescence intensity (a.u.)

Reprinted at random: two entries already listed.
Sequence | binding signal
ATCTATCTCTGACCTCTCCTCTCCACATGCTCATCGATCACGGAGTCACCTAGTGCAG | 8610 fluorescence intensity (a.u.)
ACATTTATTCCAATTCATTCATCAATCTTCTCAAATTTAGCGGAGTCACCTAGTGCAG | 8340 fluorescence intensity (a.u.)

More results follow.

Sequence | binding signal
AGAGGAGTTGGGGCGGCGTGCAAGGGGCAGGGTCCCATCGCGGAGTCACCTAGTGCAG | 8330 fluorescence intensity (a.u.)
GTACTCGCCGCCACCACCACCGCGCCGCCGCCGCCGGCCGCGGAGTCACCTAGTGCAG | 9770 fluorescence intensity (a.u.)
CTACCGCCAGGCAGCTGCCTCCGTACTACTGCTGCCTCTTCGGAGTCACCTAGTGCAG | 9220 fluorescence intensity (a.u.)
TCTTCTGGTTCTTGCTCTTGTTCTTCTTCTTCTTCTCCACCGGAGTCACCTAGTGCAG | 9380 fluorescence intensity (a.u.)
GATTTCTTATGTATTTATCAAATTTGGCAACAAACTAAACCGGAGTCACCTAGTGCAG | 9310 fluorescence intensity (a.u.)
TACCTCGGAAGCCTAGCCTATATATATCCGCCGTCTTTTCCGGAGTCACCTAGTGCAG | 9420 fluorescence intensity (a.u.)
CCTGTCTACGTTCATTCGACTATGAAATATCCCATCCTATCGGAGTCACCTAGTGCAG | 10000 fluorescence intensity (a.u.)
ATGTTTCTAGTCCCATTTAATTTAGTTAGTTTTTTTTTCGCGGAGTCACCTAGTGCAG | 8190 fluorescence intensity (a.u.)
CCTTCTGCTCATTGTTCCCCAAGAGCTTCGTCTTCGACAACGGAGTCACCTAGTGCAG | 8270 fluorescence intensity (a.u.)
TCTCGTCTCGGCCTCCGCCCCTTTCGTCCTCGCCGATCCCCGGAGTCACCTAGTGCAG | 10300 fluorescence intensity (a.u.)
CCGTCTCCGGCCATGTCCCCGTCAATCGCCGCCTCCCAGGCGGAGTCACCTAGTGCAG | 8200 fluorescence intensity (a.u.)
GCTGCATGTGATTCTTTGTTATGTGCTATGATTTTTTATACGGAGTCACCTAGTGCAG | 9330 fluorescence intensity (a.u.)
CACCGCATCCACCGCCTCGCCGTCGCCGCTCGGGGCCGCCCGGAGTCACCTAGTGCAG | 9580 fluorescence intensity (a.u.)
ATCCGCACTATCCGCCACTACCAAAACTAATTTATAAAATCGGAGTCACCTAGTGCAG | 10000 fluorescence intensity (a.u.)
AACTCACATCGATCCCAATGGAAGCTTTATTGCTATAAACCGGAGTCACCTAGTGCAG | 8580 fluorescence intensity (a.u.)
TGAACCAAGCCGCCTTCGTTTTTTTCTTTCTTCCCAGACTCGGAGTCACCTAGTGCAG | 8230 fluorescence intensity (a.u.)
GCCCCACCTACCAGCGGCGGCAGCAGCATTAACCTCCTACCGGAGTCACCTAGTGCAG | 8960 fluorescence intensity (a.u.)
AGGTATGTGGGGAGAGAGCATGGCATTAGGGTGATTCTAGCGGAGTCACCTAGTGCAG | 13400 fluorescence intensity (a.u.)
TCCATATTGCGTCTGTCAACTATCTGGTTTCTCCAAAAGACGGAGTCACCTAGTGCAG | 9020 fluorescence intensity (a.u.)
GCCACATTGCCAGTATTGGAGGACACTTTGCTACCGATCGCGGAGTCACCTAGTGCAG | 8260 fluorescence intensity (a.u.)
GCGACCTCTGCGGCCCGATCTCGCCACCAACTCCGAGCGACGGAGTCACCTAGTGCAG | 8820 fluorescence intensity (a.u.)
